{"source": "paper PMC5996148", "experiment_in_all_cases": "protein microarray (ProtoArray v5.0), streptavidin-Alexa Fluor 647", "conditions_in_all_cases": "3'-biotin; 20 mM Tris (pH 7.5), 5 mM MgCl2, 100 mM KCl, 0.1% Tween-20, A/T-rich and random oligonucleotide blockers; temperature not stated; high values mean tight binding", "key": {"[1]": {"tested_on": "TMEM182 (human)"}, "[2]": {"tested_on": "TMEM185A (human)"}, "[3]": {"tested_on": "TMEM186 (human)"}, "[4]": {"tested_on": "TMEM19 (human)"}, "[5]": {"tested_on": "TMEM25 (human)"}, "[6]": {"tested_on": "TMEM27 (human)"}, "[7]": {"tested_on": "TMEM4 (human)"}, "[8]": {"tested_on": "TMEM41A (human)"}, "[9]": {"tested_on": "TMEM43 (human)"}, "[10]": {"tested_on": "TMEM53 (human)"}, "[11]": {"tested_on": "TMEM59 (human)"}, "[12]": {"tested_on": "TMEM68 (human)"}, "[13]": {"tested_on": "TMEM70 (human)"}, "[14]": {"tested_on": "TMEM80 (human)"}, "[15]": {"tested_on": "TMEM92 (human)"}, "[16]": {"tested_on": "TMEM98 (human)"}, "[17]": {"tested_on": "TMSB10 (human)"}, "[18]": {"tested_on": "TMSL8 (human)"}, "[19]": {"tested_on": "TMUB1 (human)"}, "[20]": {"tested_on": "TNF (human)"}}, "note": "Some of the results follow."}
{"sequence": "GGGAGGCTGAGGCAGG [G4-1 biotinylated (PQS2)]", "values": [{"measurement": "binding signal", "setting": "[1]", "value": -0.352, "unit": "z-score"}, {"measurement": "binding signal", "setting": "[2]", "value": -0.351, "unit": "z-score"}, {"measurement": "binding signal", "setting": "[3]", "value": -0.337, "unit": "z-score"}, {"measurement": "binding signal", "setting": "[4]", "value": -0.353, "unit": "z-score"}, {"measurement": "binding signal", "setting": "[5]", "value": -0.348, "unit": "z-score"}, {"measurement": "binding signal", "setting": "[6]", "value": -0.344, "unit": "z-score"}, {"measurement": "binding signal", "setting": "[7]", "value": -0.273, "unit": "z-score"}, {"measurement": "binding signal", "setting": "[8]", "value": -0.332, "unit": "z-score"}, {"measurement": "binding signal", "setting": "[9]", "value": -0.327, "unit": "z-score"}, {"measurement": "binding signal", "setting": "[10]", "value": -0.317, "unit": "z-score"}, {"measurement": "binding signal", "setting": "[11]", "value": -0.281, "unit": "z-score"}, {"measurement": "binding signal", "setting": "[12]", "value": -0.323, "unit": "z-score"}, {"measurement": "binding signal", "setting": "[13]", "value": -0.253, "unit": "z-score"}, {"measurement": "binding signal", "setting": "[14]", "value": -0.281, "unit": "z-score"}, {"measurement": "binding signal", "setting": "[15]", "value": -0.288, "unit": "z-score"}, {"measurement": "binding signal", "setting": "[16]", "value": -0.338, "unit": "z-score"}, {"measurement": "binding signal", "setting": "[17]", "value": -0.231, "unit": "z-score"}, {"measurement": "binding signal", "setting": "[18]", "value": -0.325, "unit": "z-score"}, {"measurement": "binding signal", "setting": "[19]", "value": -0.298, "unit": "z-score"}, {"measurement": "binding signal", "setting": "[20]", "value": -0.271, "unit": "z-score"}]}
